PMC11798873
These are yes or no findings as the source states them, for the method shown. For some of these results: Binding seen in cells or lysates may run through a third protein. Some binding calls cover weakened binding; strength is not graded here. Blank lines part the entries; values can stand above or below the substance they belong to.

Sequences of proteins named here, by UniProt entry; tags and fusion partners are left off.
UniProt Q61312: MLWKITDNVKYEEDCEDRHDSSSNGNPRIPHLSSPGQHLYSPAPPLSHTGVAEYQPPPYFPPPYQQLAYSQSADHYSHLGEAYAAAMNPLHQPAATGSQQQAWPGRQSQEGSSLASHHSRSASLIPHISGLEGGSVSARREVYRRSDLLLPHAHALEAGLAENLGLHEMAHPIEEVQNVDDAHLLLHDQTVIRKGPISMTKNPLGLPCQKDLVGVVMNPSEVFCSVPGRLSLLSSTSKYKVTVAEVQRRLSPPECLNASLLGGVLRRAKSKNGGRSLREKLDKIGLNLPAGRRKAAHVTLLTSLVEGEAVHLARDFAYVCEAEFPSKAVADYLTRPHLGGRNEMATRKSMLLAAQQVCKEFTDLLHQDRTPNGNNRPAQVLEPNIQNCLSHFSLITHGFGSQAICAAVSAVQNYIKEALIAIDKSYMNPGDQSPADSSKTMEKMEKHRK
UniProt P48431: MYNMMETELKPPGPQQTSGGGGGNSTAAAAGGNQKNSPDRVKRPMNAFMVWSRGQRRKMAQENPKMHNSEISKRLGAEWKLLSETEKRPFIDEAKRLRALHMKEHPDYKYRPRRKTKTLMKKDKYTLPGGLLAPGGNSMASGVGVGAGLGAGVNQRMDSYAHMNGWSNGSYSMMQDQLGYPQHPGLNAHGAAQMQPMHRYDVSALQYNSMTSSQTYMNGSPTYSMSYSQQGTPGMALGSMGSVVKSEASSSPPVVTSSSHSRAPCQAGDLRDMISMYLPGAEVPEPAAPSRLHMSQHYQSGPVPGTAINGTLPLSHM
UniProt P01106: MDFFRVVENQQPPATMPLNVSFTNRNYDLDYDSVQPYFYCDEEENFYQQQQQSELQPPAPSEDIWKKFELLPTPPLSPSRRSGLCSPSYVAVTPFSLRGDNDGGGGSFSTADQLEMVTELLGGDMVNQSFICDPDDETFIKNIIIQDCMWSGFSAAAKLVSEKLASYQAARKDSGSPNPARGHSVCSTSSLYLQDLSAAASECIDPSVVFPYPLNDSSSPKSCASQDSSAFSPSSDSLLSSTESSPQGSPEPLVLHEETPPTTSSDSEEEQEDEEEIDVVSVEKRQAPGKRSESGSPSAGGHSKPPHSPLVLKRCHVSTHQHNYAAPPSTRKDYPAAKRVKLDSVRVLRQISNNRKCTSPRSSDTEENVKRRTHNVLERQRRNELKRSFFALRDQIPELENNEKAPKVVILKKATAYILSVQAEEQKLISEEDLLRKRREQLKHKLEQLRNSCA
UniProt Q01860: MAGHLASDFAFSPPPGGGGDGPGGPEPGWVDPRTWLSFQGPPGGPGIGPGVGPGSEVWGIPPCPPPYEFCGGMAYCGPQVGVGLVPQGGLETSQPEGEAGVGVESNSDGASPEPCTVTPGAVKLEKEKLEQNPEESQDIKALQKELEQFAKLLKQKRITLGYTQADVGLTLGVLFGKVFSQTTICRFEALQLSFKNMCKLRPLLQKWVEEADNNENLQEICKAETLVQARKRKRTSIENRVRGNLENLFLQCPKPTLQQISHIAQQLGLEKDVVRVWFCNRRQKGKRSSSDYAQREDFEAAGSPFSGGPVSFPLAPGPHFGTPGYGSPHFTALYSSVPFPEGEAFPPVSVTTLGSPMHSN

What was measured:
TFAP2C [1] = target: TFAP2C (UniProt Q61312); experiment: co-IP; lysate of reprogrammed cells at 48 h (300 mM NaCl, 2% Triton X-100, 0.2% sodium deoxycholate); anti-TFAP2C or IgG on Dynabeads A and G; blot for MYC; in the presence or absence of DNase
TFAP2C [2] = target: TFAP2C (UniProt Q61312); experiment: native gel or EMSA; super-shift EMSA; GETM-48h nuclear lysates with Cy5-labelled Cdx2 enhancer oligonucleotide containing a TFAP2C site; competitor oligonucleotides or antibodies added; 5% polyacrylamide, 0.5x TBE
SOX2 (human) = SOX2 (human) (UniProt P48431); experiment: native gel or EMSA; super-shift EMSA; OSKM-48h nuclear lysates with Cy5-labelled Fgf4 enhancer oligonucleotide containing the OCT/SOX composite motif; competitor oligonucleotides or antibodies added; 5% polyacrylamide, 0.5x TBE
EOMES = target: T1, EOMES (UniProt O54839); experiment: co-IP; anti-EOMES or anti-ESRRB on Dynabeads A and G; blot for TFAP2C; constant EOMES with increasing ESRRB, or constant ESRRB with increasing EOMES (amounts of transfected plasmid)
T1 sequence: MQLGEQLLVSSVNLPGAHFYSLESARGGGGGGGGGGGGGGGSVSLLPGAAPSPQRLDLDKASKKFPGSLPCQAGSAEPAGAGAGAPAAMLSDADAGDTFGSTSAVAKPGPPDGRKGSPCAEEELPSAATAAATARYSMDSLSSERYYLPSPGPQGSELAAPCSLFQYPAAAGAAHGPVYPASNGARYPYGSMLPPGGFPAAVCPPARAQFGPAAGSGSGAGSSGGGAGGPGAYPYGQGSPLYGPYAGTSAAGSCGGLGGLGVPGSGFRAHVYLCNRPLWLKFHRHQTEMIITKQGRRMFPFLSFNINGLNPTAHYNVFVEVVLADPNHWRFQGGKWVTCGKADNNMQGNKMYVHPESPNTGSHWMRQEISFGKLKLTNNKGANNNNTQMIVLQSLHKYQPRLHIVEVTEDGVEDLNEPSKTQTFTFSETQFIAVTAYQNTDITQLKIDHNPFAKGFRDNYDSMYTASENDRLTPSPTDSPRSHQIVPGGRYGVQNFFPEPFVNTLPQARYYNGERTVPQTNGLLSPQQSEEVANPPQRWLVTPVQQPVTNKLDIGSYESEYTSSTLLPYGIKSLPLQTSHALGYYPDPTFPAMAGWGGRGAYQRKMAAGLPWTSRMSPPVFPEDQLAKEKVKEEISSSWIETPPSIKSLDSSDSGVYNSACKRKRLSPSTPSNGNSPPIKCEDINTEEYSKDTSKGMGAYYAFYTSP

binding (TFAP2C [1]): binds | binding (TFAP2C [2]): binds
Substance: MYC (from UniProt P01106 1-454)

binding (SOX2 (human)): binds
Substance: OCT4 (from UniProt Q01860 1-360)

binding (EOMES): binds
Substance: TFAP2C (from UniProt Q61312 1-449)
